According to PubChem BioAssay AID662 (National Center for Advancing Translational Sciences (NCATS), 2007):
The other results are listed elsewhere or left out. Shown are side measurements of this screen, not its main read-out; they come without a call. Most of these compounds were active or inconclusive in the main read-out, so they are no random draw. Potencies come from curve fits of mixed quality, noted in brackets.

Assay: Cell signaling CRE-BLA (Fsk stim)
Conditions: CHO CRE-bla reporter (cAMP response element driving beta-lactamase), forskolin EC10, beta-lactamase ratio; measured here: 460 nm blue channel
In short: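 CRE-bla CHO cells stimulated with EC10 NKH 477 (water-soluble forskolin) and compound titrations, 3 h at 37C; beta-lactamase read with CCF4 after 2 h at room temperature. Activity from 460/530 nm emission ratio, AC50 values for positive or negative modulation.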

Row | SMILES | AC50
1 | CCCCCn1c(SCC#N)nc2cc(C(=O)NCC3CCCO3)ccc2c1=O (configuration not stated) | 2.51 µM [rising, full curve]
2 | COCCCNC(=O)c1ccc(Cn2c(=O)[nH]c3ccccc3c2=O)cc1 | 10 µM [rising, partial curve]
3 | O=c1cc(-c2ccccc2)nc2n1Cc1ccccc1-2 | 15.8 µM [rising, single point]
4 | N#CCSc1nc2ccccc2c(=O)n1CCC(=O)NC1CCCCC1 | 5.01 µM [falling, partial curve]
5 | CC(C)CCn1nc(C(=O)OC(C)C(=O)NC(N)=O)c2ccccc2c1=O (configuration not stated) | 3.98 µM [rising, partial curve]
6 | CNS(=O)(=O)c1cccc(C(=O)OCC(=O)Nc2ccccc2OC(F)F)c1 | 0.00398 µM [falling, full curve, poor fit]
7 | C=CCNc1ncnc2c1cnn2-c1cccc(C)c1 | 10 µM [rising, partial curve]
8 | COc1ccc(CCNC(=O)C2CCN(S(=O)(=O)N3CCCCCC3)CC2)cc1OC | 3.16 µM [falling, partial curve, poor fit]
9 | Cc1ccc2c(n1)sc1c(N)ncnc12 | 12.6 µM [rising, partial curve]
10 | COc1ccc(CNc2cc(-c3cccc(NS(C)(=O)=O)c3)ncn2)c(OC)c1 | 7.94 µM [rising, partial curve]
11 | Cc1c(CCC(=O)O)c(=O)oc2cc3occ(-c4ccc(F)cc4)c3cc12 | 12.6 µM [rising, partial curve]
12 | N#Cc1cn(CC(=O)NCC2CCCO2)c2ccccc12 (configuration not stated) | 0.00316 µM [falling, full curve, poor fit]
13 | COc1cccc(C2C(C(=O)c3cc4ccccc4o3)=C(O)C(=O)N2c2cc(C)on2)c1OC (configuration not stated) | 25.1 µM [rising, single point]
14 | CSc1nc2nc(-c3ccccc3)cc(C(F)(F)F)n2n1 | 25.1 µM [rising, single point]
15 | CCc1ccc(CCC(=O)O)nc1 | 1 µM [rising, single point]
16 | COC(=O)C1C(=O)C2=C(CC1C)NC(C)=C(C(=O)OC(C)C)C2c1ccc(OC)c(O)c1 (configuration not stated) | 3.16 µM [rising, full curve, poor fit]
17 | CCOc1ccc(-c2[nH]ncc2-c2ccc(OC)c(OC)c2)c(O)c1 | 0.794 µM [rising, full curve, poor fit]
18 | CC1(C)Cc2ccccc2-c2nc3ccccc3c(=O)n21 | 12.6 µM [rising, single point]
19 | COc1ccccc1N1CCN(CC(=O)c2c(C)[nH]c3ccccc23)CC1 | 15.8 µM [falling, partial curve, poor fit]
20 | CCOC(=O)Nc1ccc2c(c1)N(C(=O)CCN1CCN3CCCC3C1)c1ccccc1CC2 (configuration not stated) | 3.16 µM [falling, full curve, poor fit]
21 | Cc1cc(C)c2cc(C#N)c(N3CCCC3)nc2c1 | 12.6 µM [rising, partial curve]

Row | SMILES | AC50
22 | COc1ccc(N2CC(C)Cn3c2nc2c3c(=O)n(Cc3ccc(F)cc3)c(=O)n2C)c(OC)c1 (configuration not stated) | 10 µM [rising, single point]
23 | COc1ccc(C2C3=C(CC(C)(C)CC3=O)Nc3c2c(=O)[nH]c(=O)n3Cc2ccccc2)cc1 (configuration not stated) | 3.16 µM [rising, partial curve]
24 | CC1Cc2ccccc2N1C(=O)CSc1nc2ccccc2n1CC(=O)N1CCOCC1 (configuration not stated) | 12.6 µM [rising, single point]
25 | CCOC(=O)c1cn(CC)c2cc(N3CCSCC3)c(F)cc2c1=O | 25.1 µM [rising, single point]
26 | O=C(c1ccco1)N1CCN(CC(O)COc2ccc3oc4ccccc4c3c2)CC1 (configuration not stated) | 0.1 µM [falling, single point]
27 | N#Cc1c(NC(=O)C(F)(F)F)sc2c3c(=O)c4ccccc4c(=O)c=3oc3ccccc3c12 | 0.501 µM [rising, single point]
28 | COc1ccccc1N(C)S(=O)(=O)c1ccc(C(=O)NC2=NCCS2)cc1 | 12.6 µM [rising, single point]
29 | NC(=O)c1c(NC(=O)c2cccs2)sc2c1CCCCCC2 | 6.31 µM [rising, partial curve]
30 | O=C(OCC(=O)N1CCN(C(=O)c2ccco2)CC1)c1cc(-c2ccc(F)cc2)nc2ccccc12 | 12.6 µM [rising, single point]
31 | CCN1CCc2nc(NC(=O)Cc3ccc4c(c3)OCCO4)sc2C1 | 1 µM [falling, single point]
32 | CCOC(=O)N1CCC(=C2c3ccc(Cl)cc3CCc3cccnc32)CC1 | 25.1 µM [falling, partial curve, poor fit]
33 | CCCCn1ccnc1C(=O)c1ccc(S(=O)(=O)N(CCOC)CCOC)cc1 | 3.16 µM [rising, single point]
34 | Cc1cc(O)c(-c2cc(C(=O)Nc3ccc(S(=O)(=O)N4CCOCC4)cc3)[nH]n2)cc1C | 0.251 µM [rising, partial curve]
35 | COc1cccc(CNc2ccc(S(=O)(=O)Nc3nccs3)cc2)c1O | 25.1 µM [rising, single point]
36 | O=C(c1ccco1)N1CCN(Cc2ccccc2C(F)(F)F)CC1 | 1 µM [rising, single point]
37 | O=C(Cc1cn2ccsc2n1)Nc1nc2c(s1)CCCC2 | 7.94 µM [rising, partial curve, poor fit]
38 | N[C@H](CC(=O)O)C(=O)O | 31.6 µM [falling, single point]
39 | COc1cc(CCC(=O)Nc2cc(Cl)ccc2N2CCN(C)CC2)cc(OC)c1OC | 3.16 µM [falling, partial curve]
40 | COc1ccc(-c2nc3cnc(N4CCN(C)CC4)nc3n(C3CC3)c2=O)cc1 | 10 µM [rising, partial curve]
41 | Cc1nc2ccccc2n1CCC(=O)Nc1cccc(F)c1 | 5.01 µM [falling, partial curve]
42 | Cc1nc(/N=C\N(C)C)sc1C(=O)Nc1ccccc1 | 1 µM [falling, partial curve]

Pulled by structure from the entries so far, 3 records:
Row | SMILES | AC50
30 | O=C(OCC(=O)N1CCN(C(=O)c2ccco2)CC1)c1cc(-c2ccc(F)cc2)nc2ccccc12 | 12.6 µM [rising, single point]
14 | CSc1nc2nc(-c3ccccc3)cc(C(F)(F)F)n2n1 | 25.1 µM [rising, single point]
39 | COc1cc(CCC(=O)Nc2cc(Cl)ccc2N2CCN(C)CC2)cc(OC)c1OC | 3.16 µM [falling, partial curve]
